Measurements as given in the supplement of paper PMC10849652.
Some of the results follow.

The chains behind the UniProt entries cited, without tags or fusion partners. Where a name states a change or a piece, a line headed by the entry shows the natural chain unless it says otherwise.
UniProt Q330K2: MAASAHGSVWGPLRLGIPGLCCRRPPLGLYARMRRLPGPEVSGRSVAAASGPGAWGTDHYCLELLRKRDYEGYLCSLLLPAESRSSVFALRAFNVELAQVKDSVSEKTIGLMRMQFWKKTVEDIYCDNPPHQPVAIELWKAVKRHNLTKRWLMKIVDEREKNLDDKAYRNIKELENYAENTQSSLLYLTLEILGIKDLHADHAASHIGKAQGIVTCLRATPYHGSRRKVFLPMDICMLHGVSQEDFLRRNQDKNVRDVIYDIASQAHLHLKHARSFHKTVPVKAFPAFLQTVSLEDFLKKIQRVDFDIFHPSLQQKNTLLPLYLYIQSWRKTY
UniProt O43674, whole entry, looked up: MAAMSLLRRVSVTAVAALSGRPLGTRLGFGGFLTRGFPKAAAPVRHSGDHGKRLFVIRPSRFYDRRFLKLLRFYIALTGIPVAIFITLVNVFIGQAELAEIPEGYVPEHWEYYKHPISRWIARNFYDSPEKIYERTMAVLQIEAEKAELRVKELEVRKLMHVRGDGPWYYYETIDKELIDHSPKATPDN
UniProt Q9BRA0: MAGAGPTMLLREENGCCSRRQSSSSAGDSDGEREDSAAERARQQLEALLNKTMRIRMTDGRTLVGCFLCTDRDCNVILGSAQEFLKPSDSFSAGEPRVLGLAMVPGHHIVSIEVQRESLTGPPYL
UniProt O95169, whole entry, looked up: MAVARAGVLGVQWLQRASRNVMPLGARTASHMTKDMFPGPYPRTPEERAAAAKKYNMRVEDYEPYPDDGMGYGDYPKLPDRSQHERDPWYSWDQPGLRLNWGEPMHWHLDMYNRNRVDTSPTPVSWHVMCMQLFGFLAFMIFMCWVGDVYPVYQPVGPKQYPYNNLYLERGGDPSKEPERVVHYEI
UniProt Q5TEU4: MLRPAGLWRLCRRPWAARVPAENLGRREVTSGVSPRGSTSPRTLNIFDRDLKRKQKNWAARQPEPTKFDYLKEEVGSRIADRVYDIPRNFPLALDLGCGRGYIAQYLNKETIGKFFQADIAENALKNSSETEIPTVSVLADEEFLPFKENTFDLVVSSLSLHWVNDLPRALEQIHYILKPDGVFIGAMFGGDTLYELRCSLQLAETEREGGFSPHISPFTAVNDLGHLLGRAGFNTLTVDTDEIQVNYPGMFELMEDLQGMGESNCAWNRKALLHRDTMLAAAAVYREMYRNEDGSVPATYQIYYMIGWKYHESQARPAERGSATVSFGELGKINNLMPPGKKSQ
UniProt O43181, whole entry, looked up: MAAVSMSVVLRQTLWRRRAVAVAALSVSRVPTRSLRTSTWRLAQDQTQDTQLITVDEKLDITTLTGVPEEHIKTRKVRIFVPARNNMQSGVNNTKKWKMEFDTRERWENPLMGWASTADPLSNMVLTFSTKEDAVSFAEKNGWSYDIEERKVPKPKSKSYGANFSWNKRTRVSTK
UniProt Q7L592: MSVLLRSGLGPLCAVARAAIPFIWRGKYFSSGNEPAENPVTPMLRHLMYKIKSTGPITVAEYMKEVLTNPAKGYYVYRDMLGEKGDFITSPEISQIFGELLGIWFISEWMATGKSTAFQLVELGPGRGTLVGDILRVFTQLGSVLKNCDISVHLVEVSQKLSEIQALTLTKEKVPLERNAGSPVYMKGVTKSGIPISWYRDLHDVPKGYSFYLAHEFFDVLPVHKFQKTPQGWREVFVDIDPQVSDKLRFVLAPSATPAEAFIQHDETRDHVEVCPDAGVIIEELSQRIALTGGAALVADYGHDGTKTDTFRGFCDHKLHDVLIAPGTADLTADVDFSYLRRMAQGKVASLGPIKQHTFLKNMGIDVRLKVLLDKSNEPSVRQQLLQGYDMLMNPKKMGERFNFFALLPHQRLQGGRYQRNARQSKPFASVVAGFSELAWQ
UniProt Q9P0J0, whole entry, looked up: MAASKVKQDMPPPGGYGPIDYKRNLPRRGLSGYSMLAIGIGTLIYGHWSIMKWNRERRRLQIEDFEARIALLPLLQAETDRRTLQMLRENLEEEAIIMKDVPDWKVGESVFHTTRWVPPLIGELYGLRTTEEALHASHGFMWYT

What was measured:
Assay in all cases: log2 fold change, soluble protein after heating vs DMSO (PISA); higher = thermal stabilisation; K562 cells, 10 uM, 30 min; active = over 0.2 and 3.5 SD of the protein, either way, in both replicates (recomputed)
[1] = compound: C1=CC=C(C=C1)[C@H](COC2=CC3=C(C=C2)NC(=O)N3)NC(=O)C4=CC=CN(C4=O)CC5=CC(=C(C=C5)F)F
Procedure, shortened: (§1)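 Soluble protein was defined as the supernatant after 21,000xg for 90 min. It came from K562 cells at 2×10^6 cells/mL given 10 μM compound for 30 min, heated in aliquots for 3 min across 48°C-58°C, pooled, and extracted in PBS with 0.5% NP-40 at 4°C, and was quantified by TMTpro 16plex LC-MS/MS with equalised channel sums. Thermal stability against control samples, from duplicates, is reported as log2 fold change.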

[2] = compound: CC1=C(SC2=C1C(=N[C@H](C3=NN=C(N32)C)CC(=O)N)C4=CC=C(C=C4)Cl)C
Procedure, shortened: as §1

[3] = compound: CC1=C2C(=CC=C1)N=C(N(C2=O)C3=CC=CC=C3C)CN4C=NC5=C(N=CN=C54)N
Procedure, shortened: as §1

[4] = compound: Cc1sc2c(c1C)C(c1ccc(Cl)cc1)=N[C@@H](CC(=O)OC(C)(C)C)c1nnc(C)n1-2
Procedure, shortened: as §1

[5] = compound: c1ccc([C@@H]2C[C@H]2NC2CCNCC2)cc1
Procedure, shortened: as §1

Measured: log2 fold change

NDUFAF6 (UniProt Q330K2)
inactive: [1] -0.048 | [2] 0.003 | [3] -0.006 | [4] 0.063 | [5] 0.024

NDUFB5 (UniProt O43674)
inactive: [1] 0.008 | [2] 0.019 | [3] -0.029 | [4] -0.019 | [5] 0.009

NCK1 (UniProt P16333)
inactive: [1] -0.077 | [2] 0.025 | [3] 0.168 | [4] 0.044 | [5] -0.085

NAA38 isoform 2 (UniProt Q9BRA0)
inactive: [1] 0.038 | [2] 0.057 | [3] -0.013 | [4] -0.029 | [5] -0.124

NDUFB8 (UniProt O95169)
inactive: [1] 0.049 | [2] 0.045 | [3] 0.02 | [4] -0.002 | [5] 0.089

NDUFAF5 (UniProt Q5TEU4)
inactive: [1] 0.086 | [2] 0 | [3] 0.05 | [4] -0.001 | [5] 0.002

NDUFS4 (UniProt O43181)
inactive: [1] 0.078 | [2] -0.04 | [3] -0.096 | [4] 0.093 | [5] 0.086

NDUFAF7 (UniProt Q7L592)
inactive: [1] -0.008 | [2] -0.033 | [3] 0.081 | [4] -0.034 | [5] -0.036

NDUFA13 (UniProt Q9P0J0)
inactive: [1] 0.012 | [2] 0.045 | [3] 0.141 | [4] -0.112 | [5] -0.015
